According to patent EP0610377B1, “TRI-SUBSTITUTED TETRAHYDROFURAN ANTIFUNGALS” (SCHERING CORPORATION, priority 1991, dated 1993):
At least one compound was matched to its structure with a doubt left.

Assays:
Aspergillus flavus = Aspergillus flavus pulmonary infection model in compromised mice, oral treatment; settings: in vivo mouse model, result in words
Text: The in vivo oral antifungal activity of the compounds of Example 23-26 were compared to those of itraconazole, fluconazole and saperconazole in an Aspergillus pulmonary infection model in mice. The procedure of David Loebenberg et al. entitled "Sch 42427, The Active Enantiomer of Antifungal agent Sch 39304: In Vitro and In Vivo Activity" Antimicrobial Agents and Chemotherapy (1992), 36 498-501 was used. The Aspergillus flavus pulmonary model was run in the following manner Male, CF-1 mice weighing 20 grams were compromised with cortisone acetate (100 mg/kg), administered subcutaneously, once daily for 3 days. In addition, to prevent bacterial disease, tetracycline HCL (300 mg/1) was added to the drinking water and given ad libitum. On day 2 of compromising, mice were infected in an inhalation chamber, first described by Piggot and Emmons in 1960 and modified by us. The chamber is a 1 liter pyrex, thick-walled flask with 8 tubular side-arms that extend into the flask. Each side-arm is a pyrex tube of 14 cm length, constricted to a 1 cm opening inside the flask. The bottom of the flask was covered with a malt extract agar medium on which a sporulating culture of A. flavus ATCC 24133 was grown for 13 days at room temperature. The top of the flask was closed with a #10 stopper through which passed a glass tube attached by rubber tubing to a 60 mL syringe. […]

C. albicans C-43 = experiment: Candida systemic model in CF1 mice infected IV with C. albicans C-43, oral treatment; type: in vivo; settings: doses of 50, 25 and 10 mpk, each dissolved in PEG-200; result in words
Experimental: The compounds of Examples 23-26 and itraconazole, fluconazole, and saperconazole were tested for in vivo oral antifungal activity in a Candida systemic model using CF1 male mice , average weight 20 g, Harlan Sprague Dawley, Inc., Indianapolis, Ind. infected by IV injection into the tail vein of C. albicans C-43 (5 million CFUs). […] Oral efficacy was measured after four (4) days by percent survival and by the number of organisms remaining in the kidneys i.e., the Colony Forming Units (CFUs). The mice were sacrificed and the kidneys of individual mice were homogenized in sterile saline, diluted and spread onto Mycosel agar. Colony counts were determined after 48 hours at 37°C. For calculation of geometric means, mice that died during the experiment were considered to have 10^9 CFUs/kidneys (based on numerous previous experiments).

C. albicans C-65 = experiment: Candida systemic model in normal and compromised CF1 mice infected with C. albicans C-65, oral treatment; type: in vivo
Experimental: The compounds of Examples 23-26 and itraconazole, fluconazole, and saperconazole were tested for in vivo oral antifungal activity in a Candida systemic model using CF1 male mice , average weight 20 g, Harlan Sprague Dawley, Inc., Indianapolis, Ind. infected by IV injection into the tail vein of C. albicans C-43 (5 million CFUs). The drugs were dissolved in polyethylene glycol-200 (PEG-200) and tested by orally administering 50, 25 and 10 mpk of each drug 4 hours post infection and once daily for 3 more days. Oral efficacy was measured after four (4) days by percent survival and by the number of organisms remaining in the kidneys i.e., the Colony Forming Units (CFUs). The mice were sacrificed and the kidneys of individual mice were homogenized in sterile saline, diluted and spread onto Mycosel agar. Colony counts were determined after 48 hours at 37°C. For calculation of geometric means, mice that died during the experiment were considered to have 10^9 CFUs/kidneys (based on numerous previous experiments).
The compounds of Examples 23-24 and itraconazole, fluconazole, were tested for in vivo oral antifungal anctivity in a Candida systemic model using normal and compromised CF1 mice infected with C. albicans C-65 (5 million CFUs). […] Oral efficacy was measured by percent survival and by the number of organisms remaining in the kidneys (CFUs) after four days. […]

Candida = Candida vaginal infection in a hamster model; type: in vivo; settings: result in words

Q: Which results are given for `CC[C@@H](C)n1ncn(-c2ccc(N3CCN(c4ccc(OC[C@@H]5CO[C@@](Cn6cncn6)(c6ccc(F)cc6F)C5)cc4)CC3)cc2)c1=O` [Example 23]?
A: oral activity against Aspergillus flavus pulmonary infections compared with itraconazole, fluconazole and saperconazole (Aspergillus flavus): more active orally; oral activity in the Candida systemic model compared with itraconazole (C. albicans C-43): more active orally; oral activity in the Candida systemic model compared with itraconazole (C. albicans C-65; doses of 50 and 25 mpk, each drug dissolved in PEG-200, result in words): more active orally; activity against systemic candidiasis compared with itraconazole and saperconazole (C. albicans C-65; normal and compromised mice, result in words (text refers to Tables II and V)): more active; activity against a Candida vaginal infection compared with itraconazole and saperconazole (Candida): more active
